Source: US20060019241A1, “Na+ and CI-coupled transport system for endogenous opioid peptides” (priority 2004, published 2006)
For part of these data: For at least one compound, name, drawing or mass did not settle the structure. Some of these results come from one statement about several compounds together.

Legend:
[1] = tested on: enkephalin/endorphin transport system in SK—N—SH cells; experiment: [^3H]deltorphin II uptake in SK—N—SH cells, effect of peptides and amino acids; format: cell-based, human; settings: [^3H]deltorphin II 25 nM, NaCl, 30 minute incubation
Experimental: Uptake measurements in control ARPE-19 cells and Tat-ARPE-19 cells. Control ARPE-19 cells and Tat-ARPE-19 cells were maintained in 75-cm^2 culture flasks in Dulbecco's modified Eagle's medium/F12 medium (1:1, volume/volume (v/v)) in the presence of fetal bovine serum (10%) and G418 (100 μg/ml). For uptake measurements, cells were released by trypsin treatment and seeded in 24-well culture plates at an initial density of 0.1×10^6 cells/well. The culture medium was replaced with fresh medium on the second day following the initial seeding and uptake measurements were made on the third day. […] After incubation at 37° C. for a desired time, uptake was terminated by the removal of the medium and washing of the cells with ice-cold uptake buffer. The cells were then dissolved in 1% SDS in 0.2 M NaOH and used for measurement of radioactivity. […]
Finally, the relative affinity of various enkephalins and dynorphins for the transport system in SK—N—SH cells was determined.
To the further characterize the opioid transport of the present invention, various specific peptides that act as positive modulators of the enkephalin/endorphin transport system in the human neuronal cell line SK—N—SH were identified. […] Uptake was measured in the presence of NaCl for 30 minutes. […]
Uptake was measured in the presence of NaCl for 30 minutes. […]

[2] = tested on: opioid peptide transport system in primary neuronal cultures from rat brain striatum; experiment: Deltorphin II uptake in primary neuronal cultures from rat brain striatum; format: cell-based; settings: rat striatal neuronal cultures; deltorphin II 25 nM

Row | Compound | tripeptide concentration at which significant stimulation was seen (as low as) [1] [µM] | stimulation of deltorphin II uptake in the presence of Na^+ [2] [fold]
1 | Gly-Gly-Ile | 10 to 30 | 
2 | CC(C)[C@H](NC(=O)[C@H](CCC(=O)O)NC(=O)[C@H](Cc1ccccc1)NC(=O)[C@@H](C)NC(=O)[C@@H](N)Cc1ccc(O)cc1)C(=O)N[C@H](C(=O)NCC(N)=O)C(C)C [Deltorphin II, Tyr-D-Ala-Phe-Glu-Val-Val-Gly-NH2] |  | 2
3 | Gly-Gly-Phe | 10 to 30 | 
